From the supplement of paper PMC8728848 come the findings set out here.

Holding throughout (assay): glycan array binding signal (z-score within array); higher = stronger binding
Details in all cases: glycan notation: IUPAC condensed, linker removed

In experiment [1] the target is Gal(b1-4)GalNAc(b1-3)[Fuc(a1-2)]Gal(b1-4)GlcNAc. An outline of the steps: (§1)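 Arrays were curated from the Consortium for Functional Glycomics database, 3228 in total, and kept only where the protein sequence was available. Binding is expressed as a within-array Z-score. This score was averaged across arrays of the same protein sequence at different concentrations or buffers and across linkers, and negative values can be read as non-binding.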

A further experiment concerns the target Gal(b1-4)Glc. An outline of the steps:
as §1

For a further experiment, the target named is Gal(b1-4)Glc6S. An outline of the steps:
as §1

For a further experiment, the target named is Gal(b1-4)GlcNAc. An outline of the steps:
as §1

Experiment [2] deals with Gal(b1-4)GlcNAc(a1-6)Gal(b1-4)GlcNAc. An outline of the steps: as §1
Another experiment concerns the target Gal(b1-4)GlcNAc(b1-2)Man. An outline of the steps: as §1
The target in experiment [3] is Gal(b1-4)GlcNAc(b1-2)Man(a1-3)Man(b1-4)GlcNAc(b1-4)GlcNAc. An outline of the steps: as §1
The target in experiment [4] is Gal(b1-4)GlcNAc(b1-2)Man(a1-3)[Gal(b1-4)GlcNAc(b1-2)Man(a1-6)]Man(b1-4)GlcNAc(b1-4)GlcNAc. The procedure, abridged: as §1
Experiment [5] concerns the target Gal(b1-4)GlcNAc(b1-2)Man(a1-3)[Gal(b1-4)GlcNAc(b1-2)Man(a1-6)]Man(b1-4)GlcNAc(b1-4)[Fuc(a1-6)]GlcNAc. An outline of the steps:
as §1

In experiment [6] the target is Gal(b1-4)GlcNAc(b1-2)Man(a1-3)[Gal(b1-4)GlcNAc(b1-2)Man(a1-6)][Gal(b1-4)GlcNAc(b1-4)]Man(b1-4)GlcNAc(b1-4)[Fuc(a1-6)]GlcNAc. The procedure, abridged: as §1
The target of experiment [7] is Gal(b1-4)GlcNAc(b1-2)Man(a1-3)[Gal(b1-4)GlcNAc(b1-2)Man(a1-6)][GlcNAc(b1-4)]Man(b1-4)GlcNAc(b1-4)[Fuc(a1-6)]GlcNAc. An outline of the steps:
as §1

The target in experiment [8] is Gal(b1-4)GlcNAc(b1-2)Man(a1-3)[GlcNAc(b1-2)Man(a1-6)]Man(b1-4)GlcNAc(b1-4)GlcNAc. An outline of the steps: as §1
In experiment [9] the target is Gal(b1-4)GlcNAc(b1-2)Man(a1-3)[GlcNAc(b1-4)][Gal(b1-4)GlcNAc(b1-2)Man(a1-6)]Man(b1-4)GlcNAc(b1-4)GlcNAc. An outline of the steps:
as §1

Experiment [10] has as its target Gal(b1-4)GlcNAc(b1-2)Man(a1-3)[Man(a1-6)]Man(b1-4)GlcNAc(b1-4)GlcNAc. The procedure, abridged: as §1
Experiment [11] addresses Gal(b1-4)GlcNAc(b1-2)Man(a1-6)Man(b1-4)GlcNAc(b1-4)GlcNAc. The procedure, abridged: as §1
Experiment [12] deals with Gal(b1-4)GlcNAc(b1-2)Man(a1-6)[GlcNAc(b1-2)Man(a1-3)]Man(b1-4)GlcNAc(b1-4)GlcNAc. The procedure, abridged:
as §1

Experiment [13] concerns the target Gal(b1-4)GlcNAc(b1-2)Man(a1-6)[Man(a1-3)]Man(b1-4)GlcNAc(b1-4)GlcNAc. An outline of the steps:
as §1

In experiment [14] the target is Gal(b1-4)GlcNAc(b1-2)[Gal(b1-4)GlcNAc(b1-4)]Man(a1-3)[Gal(b1-4)GlcNAc(b1-2)Man(a1-6)]Man(b1-4)GlcNAc(b1-4)GlcNAc. The procedure, abridged:
as §1

In experiment [15] the target is Gal(b1-4)GlcNAc(b1-2)[Gal(b1-4)GlcNAc(b1-4)]Man(a1-3)[Gal(b1-4)GlcNAc(b1-2)[Gal(b1-4)GlcNAc(b1-6)]Man(a1-6)]Man(b1-4)GlcNAc(b1-4)GlcNAc. The procedure, abridged: as §1
Experiment [16] deals with Gal(b1-4)GlcNAc(b1-2)[Gal(b1-4)GlcNAc(b1-4)]Man(a1-3)[GlcNAc(b1-4)][Gal(b1-4)GlcNAc(b1-2)Man(a1-6)]Man(b1-4)GlcNAc(b1-4)GlcNAc. The procedure, abridged: as §1
Experiment [17] has as its target Gal(b1-4)GlcNAc(b1-2)[Gal(b1-4)GlcNAc(b1-4)]Man(a1-3)[GlcNAc(b1-4)][Gal(b1-4)GlcNAc(b1-2)[Gal(b1-4)GlcNAc(b1-6)]Man(a1-6)]Man(b1-4)GlcNAc(b1-4)GlcNAc. An outline of the steps: as §1
Experiment [18] has as its target Gal(b1-4)GlcNAc(b1-2)[Gal(b1-4)GlcNAc(b1-6)]Man(a1-6)[Gal(b1-4)GlcNAc(b1-2)Man(a1-3)]Man(b1-4)GlcNAc(b1-4)GlcNAc. The procedure, abridged: as §1

This is one part of the list.

B1: DCIR1 (Mus musculus), Q9QZ15 (protein)
chain: MASEITYAEVKFKNESNSLHTYSESPAAPREKPIRDLRKPGSPSLLLTSLMLLLLLLAITFLVAFIIYFQKYSQLLEEKKAAKNIMHNELNCTKSVSPMEDKVWSCCPKDWRLFGSHCYLVPTVSSSASWNKSEENCSRMGAHLVVIQSQEEQDFITGILDTHAAYFIGLWDTGHRQWQWVDQTPYEESITFWHNGEPSSGNEKCATIIYRWKTGWGWNDISCSLKQKSVCQMKKINL
Consider B1, for which the “glycan array binding signal (z-score)” value in [1] is -0.625; in the experiment with Gal(b1-4)Glc, -0.029; with Gal(b1-4)Glc6S, 1.36; in the experiment with Gal(b1-4)GlcNAc it was -0.206; in experiment [2] it was -0.525; with Gal(b1-4)GlcNAc(b1-2)Man, 0.987. Moreover, the “glycan array binding signal (z-score)” value in [3] is -0.673; in experiment [4] it was -0.217; in experiment [5], -0.636; in experiment [6], -0.267; in experiment [7] it was -0.61; in experiment [8], 0.278. Besides, the “glycan array binding signal (z-score)” value in [9] is -0.363; in [10], 0.951; in [11], -0.064; in experiment [12], 0.904; in experiment [13], 0.023; in [14], -0.372. Further, the “glycan array binding signal (z-score)” value in experiment [15] is -0.824; in experiment [16] it was -0.162; in experiment [17] it was 0.65; in experiment [18], -0.475.
